The chains behind the UniProt entries cited, without tags or fusion partners. Where a name states a change or a piece, a line headed by the entry shows the natural chain unless it says otherwise.
UniProt P61026: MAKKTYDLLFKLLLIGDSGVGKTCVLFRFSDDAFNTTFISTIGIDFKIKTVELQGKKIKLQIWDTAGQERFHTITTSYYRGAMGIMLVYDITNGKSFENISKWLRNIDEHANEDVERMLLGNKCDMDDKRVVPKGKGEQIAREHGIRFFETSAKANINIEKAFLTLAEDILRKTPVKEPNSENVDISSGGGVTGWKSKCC

These are yes or no findings as the source states them, for the method shown. In cells and extracts the contact can be indirect. Some binding calls cover weakened binding; strength is not graded here.
Each substance was assayed against T1, SopD-RFP (S. Typhimurium) (UniProt P40722) (assay: co-IP; HEK 293T co-transfected with SopD-RFP and GFP-Rab10 variants; lysates (50 mM Tris-HCl pH 7.4, 150 mM NaCl, 1 mM EDTA, 1% Triton X-100) incubated overnight with RFP-Trap resin; Western blot of the elutions).
T1 sequence: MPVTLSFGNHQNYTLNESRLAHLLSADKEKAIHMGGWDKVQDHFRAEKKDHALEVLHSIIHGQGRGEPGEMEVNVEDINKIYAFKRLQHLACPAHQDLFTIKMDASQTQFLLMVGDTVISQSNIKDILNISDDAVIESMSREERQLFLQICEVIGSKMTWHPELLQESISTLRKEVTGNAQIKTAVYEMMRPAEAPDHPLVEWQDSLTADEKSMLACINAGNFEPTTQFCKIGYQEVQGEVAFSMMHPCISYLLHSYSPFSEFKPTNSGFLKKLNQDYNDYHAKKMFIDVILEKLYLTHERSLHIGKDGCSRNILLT
In the case of “GFP-Rab10 Q68L (constitutively active) (from UniProt P61026 1-200)”, the binding is reported as “binds”.
In the case of “GFP-Rab10 T23N (dominant negative) (from UniProt P61026 1-200)”, the binding is reported as “binds”.
In the case of “GFP-Rab10 wild type (from UniProt P61026 1-200)”, the binding is reported as “binds”.
